Assay results: patent US20100105746A1, “METHOD FOR TREATING METABOLIC DISEASES” (priority 2008, published 2010)
For at least one compound, name, drawing or mass did not settle the structure.

Assay: Diabetic-prone (db/db) mouse model with high-fat diet (Example 7)
Assay type: in vivo
Settings: db/db mice
Description: The fibrate PPARα agonist fenofibrate (50 mg/kg) and the PPARγ agonist rosiglitazone (10 mg/kg) were used as reference controls for the study.

Structure (SMILES) | HDL (50 mg/kg) | total cholesterol (50 mg/kg) | total plasma triglycerides (50 mg/kg) | weight gain (50 mg/kg) | whole blood glucose levels (50 mg/kg) | weight gain (10 mg/kg) | whole blood glucose levels (10 mg/kg)
CC(C)OC(=O)C(C)(C)Oc1ccc(C(=O)c2ccc(Cl)cc2)cc1 [fenofibrate] | increase | increase | tended to decrease | None of the romazarit or fenofibrate treatments reduced weight gain | no such effect was seen |  | 
CN(CCOc1ccc(CC2SC(=O)NC2=O)cc1)c1ccccn1 (stereo not shown) [rosiglitazone] |  |  |  |  |  | substantial increase in weight gain | reduced whole blood glucose levels
